Consider one substance from paper PMC6168633.

The chains behind the UniProt entries cited, without tags or fusion partners.
UniProt O35303: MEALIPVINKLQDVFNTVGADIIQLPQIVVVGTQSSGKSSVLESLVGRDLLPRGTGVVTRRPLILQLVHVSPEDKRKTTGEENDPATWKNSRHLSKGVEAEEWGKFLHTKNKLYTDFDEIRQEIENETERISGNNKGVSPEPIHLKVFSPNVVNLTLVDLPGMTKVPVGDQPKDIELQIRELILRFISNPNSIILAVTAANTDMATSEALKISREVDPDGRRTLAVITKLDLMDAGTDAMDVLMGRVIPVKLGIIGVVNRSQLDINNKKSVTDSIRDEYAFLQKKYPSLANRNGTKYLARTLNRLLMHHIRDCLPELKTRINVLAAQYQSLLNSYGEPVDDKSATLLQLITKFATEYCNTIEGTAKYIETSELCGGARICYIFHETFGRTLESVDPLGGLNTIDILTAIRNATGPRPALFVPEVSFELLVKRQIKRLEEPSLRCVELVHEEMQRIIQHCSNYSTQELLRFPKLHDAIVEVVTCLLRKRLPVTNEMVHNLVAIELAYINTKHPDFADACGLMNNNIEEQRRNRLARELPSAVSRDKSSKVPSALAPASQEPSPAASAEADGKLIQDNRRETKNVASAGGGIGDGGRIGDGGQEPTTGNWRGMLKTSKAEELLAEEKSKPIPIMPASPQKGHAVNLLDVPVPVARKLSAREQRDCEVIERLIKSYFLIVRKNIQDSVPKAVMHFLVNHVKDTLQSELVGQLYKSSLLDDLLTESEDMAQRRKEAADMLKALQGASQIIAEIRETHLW

No constants are given. Whether binding was seen depends on the method and setting. Binding seen in cells or lysates may run through a third protein. Some entries that bind do so weakly or less than the wild type.

This test deals with T1, zinc transporter 4 (ZnT4) (rat (endogenous in hippocampus)) (UniProt O55174).
T1 sequence: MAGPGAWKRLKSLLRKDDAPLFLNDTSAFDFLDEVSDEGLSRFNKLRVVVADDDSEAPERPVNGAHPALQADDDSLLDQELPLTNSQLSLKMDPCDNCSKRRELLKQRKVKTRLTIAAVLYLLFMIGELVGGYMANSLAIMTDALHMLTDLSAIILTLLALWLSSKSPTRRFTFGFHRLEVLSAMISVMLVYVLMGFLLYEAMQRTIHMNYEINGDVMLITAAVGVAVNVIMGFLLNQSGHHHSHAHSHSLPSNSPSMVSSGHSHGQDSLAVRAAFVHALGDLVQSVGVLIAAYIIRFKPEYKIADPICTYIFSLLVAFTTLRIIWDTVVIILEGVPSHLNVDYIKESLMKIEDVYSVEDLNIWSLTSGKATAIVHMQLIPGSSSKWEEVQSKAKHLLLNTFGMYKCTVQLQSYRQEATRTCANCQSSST
Description: co-IP; extracts of rat hippocampus in RIPA lysis buffer; supernatant with ZnT4 antibody (1 ug) or goat IgG (1 ug) 2 h at 4 °C, protein A/G agarose overnight at 4 °C, washed 5 times with lysis buffer; blotted with goat anti-ZnT4 and mouse anti-DRP1.

Take DRP1 (from UniProt O35303 1-755): the binding entry is reported as “binds”.
